In all, about 2,300 compounds were measured (“plate-normalized OD600 growth (mean of duplicates)”: median about 0.29, lowest 2% from about 0.22 on). The list shows a part of the results.
Test system: Escherichia coli BW25113
Test: plate-normalized OD600 growth (mean of duplicates) (OD600 (normalized)); higher = more growth (less inhibition)
Conditions: 10 µM
Method: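 E. coli BW25113 in LB (100 µl, 96-well, no shaking) was exposed to 10 µM of each compound from a ~30,000-member library and grown at 37°C for 24 h or 15°C for 48 h, in duplicate. Growth was read as OD600 and the duplicate ODs were normalized across screening plates to correct plate-to-plate variation. Hits were >3σ below the mean OD600 at 15°C and <2σ below the mean at 37°C.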

Structure (SMILES) | plate-normalized OD600 growth (temperature: 15°C, 48 h) | plate-normalized OD600 growth (temperature: 37°C, 24 h)
CCn1cc([N+](=O)[O-])nc1C | 0.257 | 0.624
CCOC(=O)c1c(CN2CCN(c3ccccc3)CC2)n(-c2ccccc2)c2ccc(O)cc12 | 0.228 | 0.627
N#Cc1cc2c(nc1SCc1ccccc1F)CCC2 | 0.24 | 0.585
COc1cccc(NC(=O)C(C(F)(F)F)C(F)(F)F)c1 | 0.257 | 0.63
N#Cc1ccc([N+](=O)[O-])s1 | 0.248 | 0.627
COc1ccc(-c2cc(C(F)(F)F)n3ncc(C(=O)NCC45CC6CC(CC(C6)C4)C5)c3n2)cc1OC | 0.274 | 0.635
O=[N+]([O-])c1cc(C(F)(F)F)ccc1S(=O)(=O)c1ccc(Cl)cc1 | 0.238 | 0.619
CCn1c(=N)n(CC(=O)c2cccs2)c2ccccc21 | 0.221 | 0.595
Cc1ccc(C(=O)c2ccccc2[N+](=O)[O-])cc1 | 0.243 | 0.613
CCN(CC)Cc1cc(NC2=NS(=O)(=O)c3ccccc32)ccc1OC(=O)c1ccccc1 | 0.253 | 0.64
O=C(Nc1ccccn1)c1ccc(Br)o1 | 0.23 | 0.631
CCCCOc1ccc(S(=O)(=O)Oc2c(Cl)cc(Cl)c3cccnc23)cc1 | 0.261 | 0.631
COc1c(C(C)=O)ccc2ccccc12 | 0.239 | 0.622
CCC1(O)C(=O)N(C)c2cnc(Nc3ccc(C(=O)NC4CCC(N5CCN(CC6CC6)CC5)CC4)cc3OC)nc2N1C(C)C (stereo unspecified) | 0.23 | 0.612
CC(C)(C)c1ccc(C(CC(=O)O)NC(=O)c2ccc(F)cc2)cc1 (stereo unspecified) | 0.239 | 0.617
NC(=O)c1c(NC(=O)c2cc3ccccc3o2)sc2c1CCCCC2 | 0.251 | 0.653
CCOC(=O)c1[nH]c(C)c(CNCc2ccccc2)c1C | 0.238 | 0.627
COc1ccccc1NC(=S)NCCC(=O)O | 0.247 | 0.616
Cc1sc(NC(=O)c2ccncc2)nc1-c1ccc(Cl)cc1 | 0.226 | 0.606
O=[N+]([O-])c1ccc(N2CCCCC2)nc1N1CCCCC1 | 0.257 | 0.607
COc1ccccc1N1CCN(S(=O)(=O)c2ccc(C(F)(F)F)cc2)CC1 | 0.26 | 0.603
O=C1OC(=O)C2C3C=CC(C3=C(c3ccccc3)c3ccccc3)C12 (stereo unspecified) | 0.263 | 0.635
COc1ccc(C2=C(C(C)=O)C(C)=NC(=S)C2C#N)cc1 (stereo unspecified) | 0.252 | 0.607
O=C(CNC(=O)C(c1ccccc1)c1ccccc1)N/N=C/c1ccccc1O | 0.233 | 0.598
N#C/C(NCc1cccs1)=C(\C#N)NCc1c(F)cccc1Cl | 0.228 | 0.615

Structure (SMILES) | plate-normalized OD600 growth (temperature: 15°C, 48 h) | plate-normalized OD600 growth (temperature: 37°C, 24 h)
O=C(Nc1ccc(S(=O)(=O)Nc2cccc(Cl)c2Cl)cc1)C1COc2ccccc2O1 (stereo unspecified) | 0.262 | 0.62
CC(C)CSc1ncnc2scc(-c3ccccc3)c12 | 0.235 | 0.631
O=c1/c(=C/c2cc(Br)c(O)c(Br)c2)sc2nc3ccccc3n12 | 0.255 | 0.655
CCOC(=O)c1ccc(-n2sccc2=O)cc1 | 0.219 | 0.645
C#CC1(O)CCN(C(C)(C)C)CC1C (stereo unspecified) | 0.24 | 0.621
COc1ccc(C2C(C(=O)/C=C/c3ccccc3)=C(O)C(=O)N2CCO)cc1 (stereo unspecified) | 0.227 | 0.597
COc1ccc2c(c1OC)CN(C)CCc1cc3c(cc1C(O)C2)OCO3 (stereo unspecified) | 0.242 | 0.617
O=C1CC(Nc2ccccc2)C=C1Nc1ccccc1 (stereo unspecified) | 0.242 | 0.629
Clc1cccc(Cl)c1/C=N/Nc1nncc(-c2ccccc2)n1 | 0.186 | 0.641
Cc1ccccc1NC(=O)c1ccc(NC(=O)C2(C)CCCCC2)cc1 | 0.231 | 0.649
NS(=O)(=O)c1ccc(CCn2c(-c3ccc(S(=O)(=O)N4CCCC4)cc3)csc2=Nc2cccc(C(F)(F)F)c2)cc1 | 0.257 | 0.65
COC(=O)c1ccc(Cl)cc1NS(=O)(=O)c1ccc(OC)c(OC)c1 | 0.232 | 0.623
O=[N+]([O-])c1ccc(Oc2cccc3cccnc23)cc1 | 0.246 | 0.645
O=C(CSCC(=O)OCC(=O)N1CCCCC1)Nc1ccc(Br)cn1 | 0.247 | 0.621
O=C1N=C(N2CCOCC2)S/C1=C\c1ccccn1 | 0.237 | 0.61
N#Cc1c(N)oc(-c2ccco2)c1-c1ccco1 | 0.249 | 0.632
CC(=O)NC1(C(F)(F)F)C(=O)Nc2c1c(=O)[nH]c(=O)n2-c1ccc(Cl)cc1 (stereo unspecified) | 0.241 | 0.651
C/C(=N\NC(=O)Cc1c[nH]c2ccccc12)c1ccc(O)cc1 | 0.246 | 0.613
CCOC(=O)Cn1c(=O)c(C#N)cn(C(C)C)c1=O | 0.266 | 0.643
CC(C)(C)c1ccc(C(=O)n2cnnc2N)cc1 | 0.226 | 0.609
O=C1NC(=O)c2cc(-c3ccc([N+](=O)[O-])cc3)ccc21 | 0.241 | 0.631
CC(=O)Nc1ccc(Sc2nc3ccccc3s2)c(Cl)c1 | 0.252 | 0.563
COc1ccc(C2SCC(=O)N2CCN2CCCCC2)cc1 (stereo unspecified) | 0.238 | 0.618
COc1ccc(/C(C)=N\NC2=NCCCN2)cc1 | 0.214 | 0.597
Nc1nonc1C(=O)N/N=C/c1cc(Br)cs1 | 0.24 | 0.616

Rewritten as labelled records: two of the compounds above
COc1ccc(C2C(C(=O)/C=C/c3ccccc3)=C(O)C(=O)N2CCO)cc1 (stereo unspecified)
  plate-normalized OD600 growth (temperature: 15°C, 48 h): 0.227
  plate-normalized OD600 growth (temperature: 37°C, 24 h): 0.597
COc1ccc2c(c1OC)CN(C)CCc1cc3c(cc1C(O)C2)OCO3 (stereo unspecified)
  plate-normalized OD600 growth (temperature: 15°C, 48 h): 0.242
  plate-normalized OD600 growth (temperature: 37°C, 24 h): 0.617

Next part

Structure (SMILES) | plate-normalized OD600 growth (temperature: 15°C, 48 h) | plate-normalized OD600 growth (temperature: 37°C, 24 h)
CCN(CC)C1=N/C(=C/c2ccccc2)C(=O)N1c1ccc(Cl)cc1 | 0.224 | 0.61
CC(=O)Nc1cc([N+](=O)[O-])ccc1-n1cc(C)c(C(F)(F)F)n1 | 0.259 | 0.625
CCCCCCCCCCCCCCCC(=O)OC1CC(n2ccc(NC(=O)c3ccccc3)nc2=O)OC1CO (stereo unspecified) | 0.282 | 0.623
CCC(C(=O)Nc1ccc(C(F)(F)F)cc1)c1ccccc1 (stereo unspecified) | 0.277 | 0.609
CC(=O)Oc1cccc(NC(=O)CC2Sc3ccccc3NC2=O)c1 (stereo unspecified) | 0.252 | 0.622
COC(=O)c1ccc(Nc2nc(-c3ccc(Br)cc3)c(C)s2)cc1 | 0.244 | 0.583
Cc1nc(Nc2ccc(F)cc2)c2oc3ccccc3c2n1 | 0.245 | 0.613
Nc1nnc(CC(=O)N/N=C/c2ccccc2F)s1 | 0.255 | 0.625
COc1ccc(OC)c(NC(=O)c2ccc(N3C(=O)/C(=C/c4ccc(Cl)cc4)N=C3c3ccccc3)cc2)c1 | 0.216 | 0.634
COc1cccc(C(=O)N/N=C(/C)c2ccccc2O)c1 | 0.253 | 0.612
CSc1cccc(NC(=O)CCCC(=O)O)c1 | 0.253 | 0.612
[O-]c1n[n+](-c2cccc(F)c2)no1 | 0.251 | 0.626
Cc1cc(C)n2nc(S(=O)(=O)Nc3ccccc3[N+](=O)[O-])nc2n1 | 0.246 | 0.625
O=C(Nc1ccc(O)cc1)c1c(O)c2ccccc2[nH]c1=O | 0.234 | 0.603
CC1(C)CC(=O)C2=C(C1)OC(N)=C([N+](=O)[O-])C2c1ccccc1 (stereo unspecified) | 0.263 | 0.625
COc1ccc(CCCC(=O)N/N=C/c2ccc(O)cc2O)cc1 | 0.239 | 0.631
O=C(O)CCNC(=S)Nc1cccc(C(F)(F)F)c1 | 0.252 | 0.632
NC(N)=NS(=O)(=O)c1ccc(NC(=O)C2CCCCC2)cc1 | 0.256 | 0.628
O=C(O)CCCc1nc(-c2cccc([N+](=O)[O-])c2)no1 | 0.238 | 0.616
O=C1C=C(Cl)CC(c2ccc(C(F)(F)F)cc2)C1 (stereo unspecified) | 0.243 | 0.607
c1ccc(OCCOc2ccccn2)nc1 | 0.25 | 0.612
CC(=O)NC1=NN(C(C)=O)C(C)(CS(=O)(=O)c2ccc(Br)cc2)S1 (stereo unspecified) | 0.261 | 0.62
O=C(COc1ccc(Cl)cc1Cl)NS(=O)(=O)c1ccccc1 | 0.222 | 0.637
CCn1nc(C)c(N=Cc2ccc(N(C)C)c(Br)c2)c1C | 0.246 | 0.64
CC(=O)NN(C)c1ccc(C(F)(F)F)cc1[N+](=O)[O-] | 0.236 | 0.612

Structure (SMILES) | plate-normalized OD600 growth (temperature: 15°C, 48 h) | plate-normalized OD600 growth (temperature: 37°C, 24 h)
COC(=O)C1=C(C)N(c2ccc(Cl)cc2)/C(=C/c2sccc2C)C1=O | 0.251 | 0.644
CCOP(=O)(OCC)C(Nc1nc2ccc(C)cc2s1)c1cccc(C)c1 (stereo unspecified) | 0.251 | 0.618
CC(=O)N/C(=C/c1ccc2c(c1)OCO2)C(=O)O | 0.266 | 0.654
COc1ccc(CNCC2COc3ccccc3O2)cc1OC (stereo unspecified) | 0.26 | 0.638
FC(F)(F)c1ccc2[nH]c(=S)[nH]c2c1 | 0.248 | 0.623
O=C(O)c1cccc(N=Cc2ccc(OCc3ccc(F)cc3)cc2)c1 | 0.225 | 0.684
C(=N\Nc1nc2ccccc2s1)/c1ccc(Sc2nc3ccccc3s2)o1 | 0.249 | 0.62
O=c1c2cc3c(=O)n(CC4CCCO4)c(=O)c3cc2c(=O)n1CC1CCCO1 (stereo unspecified) | 0.259 | 0.619
NC(=O)CCSCCC(N)=O | 0.248 | 0.614
O=C(NCc1ccco1)C1CC(=O)N(c2ccccc2)C1 (stereo unspecified) | 0.259 | 0.609
Nc1ncnc2c1nc(N/N=C/c1ccc(O)cc1)n2C1OC(CO)C(O)C1O (stereo unspecified) | 0.242 | 0.624
Cc1cc(=O)oc(C)c1C(=O)OCC(=O)c1ccccc1 | 0.244 | 0.622
CCCS(=O)(=O)c1c(S(=O)(=O)CCC)c2cnccn2c1C(=O)c1ccc(F)cc1 | 0.241 | 0.612
O=C(CC1=C(Sc2ccccc2)c2ccccc2C1Cc1ccccc1)Nc1ccc(OC(F)(F)Cl)cc1 (stereo unspecified) | 0.233 | 0.611
FC(F)(F)Oc1ccc(NC(=S)NNc2ncc(Cl)cc2Cl)cc1 | 0.255 | 0.607
CN(C)c1ccc(-c2nc(-c3ccccc3)c(-c3ccc(Oc4ccccc4)cc3)[nH]2)cc1 | 0.24 | 0.628
O=C1Nc2ccc(Br)cc2C12CC(c1ccc(F)cc1)=NC(=S)N2c1ccccc1C(F)(F)F (stereo unspecified) | 0.247 | 0.618
Cc1cc(N=C(N)N=C(N)N)no1 | 0.242 | 0.635
Cn1ccnc1SCC(=O)Nc1nccs1 | 0.254 | 0.623
Ic1ccc(I)s1 | 0.259 | 0.62
O=C(O)CC(NS(=O)(=O)Cc1ccccc1)c1cccc([N+](=O)[O-])c1 (stereo unspecified) | 0.244 | 0.621
Cc1ccc(NC(=O)C(=O)NCCN2CCN(C(=O)c3ccccc3)CC2)cc1 | 0.221 | 0.63
c1ccc(CN2CCC(n3nnc4cccnc43)CC2)cc1 | 0.224 | 0.626

From the supplement of paper PMC4371806
